Measured values: KR20230108156A
No constants are given. Whether binding was seen depends on the method and setting. Some binding calls cover weakened binding; strength is not graded here.

Chains of the proteins cited; added tags and fusions are not shown.
UniProt P29965: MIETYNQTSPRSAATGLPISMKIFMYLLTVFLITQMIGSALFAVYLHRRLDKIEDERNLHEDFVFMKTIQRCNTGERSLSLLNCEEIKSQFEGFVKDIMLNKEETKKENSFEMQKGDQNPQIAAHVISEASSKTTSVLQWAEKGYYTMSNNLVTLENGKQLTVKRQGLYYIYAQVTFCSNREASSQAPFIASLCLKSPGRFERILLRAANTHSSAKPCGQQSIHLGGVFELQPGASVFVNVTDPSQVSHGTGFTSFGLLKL

Molecular target: CD40L on CD40L 표면발현 CHO 세포 (CHO cells expressing CD40L on the surface, ATCC) (UniProt P29965)
Test: flow cytometry on CD40L CHO cells, 100 μl culture supernatant, anti-human Ig-FITC

B1: 14D6 키메릭 항체 (chimeric 14D6) (antibody, V domains shown)
VH: QVQLQQSGAELVKPGASVKLSCKASGYTFTRYYMFWVKQRPGQGLEWIGEINPTNGDTNFNEEFKSKATLTVDKSSSTAYMQLSSLTSEDSAVYYCTRPLGSRDAMDYWGPGTSVTVSS
VL: DIVLTQSPASLAVSLGQRATISCRASQSVSSSRYSYMHWYQQKPGQPPKLLIKYASSLESGVPARFSGSGSGTDFTLNIHPVEGEDTATYYCQHSWELPWTFGGGTKLEIK
For B1, the binding was “binds”.
